Assay results published in patent publication US7709548B2, “Method for manufacturing monosulfonium salt, cationic polymerization initiator, curable composition, and cured product” (San-Apro Limited, priority 2003, dated 2010).

assay: Reference Example curability test (effect of unreacted starting materials); details: 3 parts of 50% propylene carbonate solution per 100 parts UVR-6110; pencil hardness after 10 minutes of UV irradiation

Molecule	Cured film hardness after 10 min. [B]
F[P-](F)(F)(F)(F)F.c1ccc(Sc2ccc([S+](c3ccccc3)c3ccccc3)cc2)cc1 [compound 10, (4-phenylthiophenyl)diphenylsulfonium hexafluorophosphate]	3

same assay, conditions: 3 parts of 50% propylene carbonate solution per 100 parts UVR-6110; time for pencil hardness of coating film to reach HB

Molecule	Curing time [s]
F[P-](F)(F)(F)(F)F.c1ccc(Sc2ccc([S+](c3ccccc3)c3ccccc3)cc2)cc1 [compound 10, (4-phenylthiophenyl)diphenylsulfonium hexafluorophosphate]	>600
F[P-](F)(F)(F)(F)F.c1ccc(Sc2ccc([S+](c3ccccc3)c3ccccc3)cc2)cc1 [compound 1, (4-phenylthiophenyl)diphenylsulfonium hexafluorophosphate]	170

assay: Curability test: curing rate test of UV-irradiated coating film; details: 1 part initiator solution (SbF6 salt, propylene carbonate) per 100 parts UVR-6110; time for pencil hardness of cured film to reach HB after UV irradiation

Molecule	Curing rate [s]
(4-phenylthiophenyl)diphenylsulfonium hexafluoroantimonate [Example 6]	170
(4-phenylthiophenyl)diphenyl-sulfonium hexafluoroantimonate [Example 7]	175
(4-phenylthiophenyl)diphenylsulfonium hexafluoroantimonate [Comparative Example 4, reference compound]	240
(4-phenylthiophenyl)diphenylsulfonium hexafluoroantimonate [Comparative Example 5, reference compound]	165
(4-phenylthiophenyl)diphenylsulfonium hexafluoroantimonate [Example 8]	165

same assay, conditions: 5 parts initiator solution (PF6 salt, propylene carbonate) per 100 parts UVR-6110; time for pencil hardness of cured film to reach HB after UV irradiation

Molecule	Curing rate [s]
F[P-](F)(F)(F)(F)F.c1ccc(Sc2ccc([S+](c3ccccc3)c3ccccc3)cc2)cc1 [Example 2, (4-phenylthiophenyl)diphenylsulfonium hexafluorophosphate]	135
F[P-](F)(F)(F)(F)F.c1ccc(Sc2ccc([S+](c3ccccc3)c3ccccc3)cc2)cc1 [Comparative Example 3, (4-phenylthiophenyl)diphenylsulfonium hexafluorophosphate, reference compound]	430
F[P-](F)(F)(F)(F)F.c1ccc(Sc2ccc([S+](c3ccccc3)c3ccccc3)cc2)cc1 [Example 5, (4-phenylthiophenyl)diphenylsulfonium hexafluorophosphonate]	125
F[P-](F)(F)(F)(F)F.c1ccc(Sc2ccc([S+](c3ccccc3)c3ccccc3)cc2)cc1 [Comparative Example 1, (4-phenylthiophenyl)diphenylsulfonium hexafluorophosphate, reference compound]	225
F[P-](F)(F)(F)(F)F.O=C(c1ccccc1)c1ccc(Sc2ccc([S+](c3ccccc3)c3ccccc3)cc2)cc1 [Example 4, [4-(4-benzoylphenyl)thiophenyl]-diphenylsulfonium hexafluorophosphate]	130
Cc1ccc([S+](c2ccc(C)cc2)c2ccc(Sc3ccccc3)cc2)cc1.F[P-](F)(F)(F)(F)F [Example 3, (4-phenylthiophenyl)-4,4′-dimethyldiphenylsulfonium hexafluorophosphate]	125
F[P-](F)(F)(F)(F)F.c1ccc(Sc2ccc([S+](c3ccccc3)c3ccccc3)cc2)cc1 [Example 1, (4-phenylthiophenyl)diphenylsulfonium hexafluorophosphate]	130
